{"source": "patent US9017951B2", "about": "“Anti-FcRH5 antibodies and immunoconjugates and methods of use” (Genentech, Inc., priority 2009, dated 2015)", "origin": "cited, not measured here", "note": "Some entries share one result that the patent states for a list of compounds. For at least one compound, name, drawing or mass did not settle the structure. Non-standard residues stand in square brackets, D forms with d. Residues, ends and D or L forms follow the SMILES beside them. *: point of attachment. Dolaproine = CO[C@@H]([C@@H]1CCCN1)[C@@H](C)C(=O)O; Dil = CC[C@H](C)[C@H](NC)[C@@H](CC(=O)O)OC; X1 = C[C@@H](N*)[C@@H](O)c1ccccc1; NMeV = CN[C@H](C(=O)O)C(C)C", "data": [{"conditions": "free drug; cited from earlier work", "values": [{"smiles": "COc1cc2cc(c1Cl)N(C)C(=O)C[C@H](OC(=O)[C@H](C)N(C)C(=O)CCS)[C@]1(C)O[C@H]1[C@H](C)[C@@H]1C[C@@](O)(NC(=O)O1)[C@H](OC)/C=C/C=C(\\C)C2", "note": "[DM1, N(2′)-deacetyl-N(2′)-(3-mercapto-1-oxopropyl)-maytansine]", "Cytotoxicity relative to the vinca alkaloid mitotic inhibitors used in chemotherapeutic treatments of NHLs": "at least 100 fold"}, {"smiles": "COc1cc2cc(c1Cl)N(C)C(=O)C[C@H](OC(=O)[C@H](C)N(C)C(=O)CCC(C)(C)S)[C@]1(C)O[C@H]1[C@H](C)[C@@H]1C[C@@](O)(NC(=O)O1)[C@H](OC)/C=C/C=C(\\C)C2", "note": "[DM4, N(2′)-deacetyl-N2-(4-mercapto-4-methyl-1-oxopentyl)-maytansine]", "Cytotoxicity relative to the vinca alkaloid mitotic inhibitors used in chemotherapeutic treatments of NHLs": "at least 100 fold"}, {"smiles": "CC[C@H](C)[C@@H]([C@@H](CC(=O)N1CCC[C@H]1[C@H](OC)[C@@H](C)C(=O)N[C@H](C)[C@@H](O)c1ccccc1)OC)N(C)C(=O)[C@@H](NC(=O)[C@@H](NC)C(C)C)C(C)C", "note": "[MMAE, mono-methyl auristatin E] (H-[NMeV]V[Dil][Dolaproine]-X1)", "Cytotoxicity relative to the vinca alkaloid mitotic inhibitors used in chemotherapeutic treatments of NHLs": "at least 100 fold"}, {"smiles": "CC[C@H](C)[C@@H]([C@@H](CC(=O)N1CCC[C@H]1[C@H](OC)[C@@H](C)C(=O)N[C@@H](Cc1ccccc1)C(=O)O)OC)N(C)C(=O)[C@@H](NC(=O)[C@@H](NC)C(C)C)C(C)C", "note": "[MMAF, monomethylauristatin F] (H-[NMeV]V[Dil][Dolaproine]F-OH)", "Cytotoxicity relative to the vinca alkaloid mitotic inhibitors used in chemotherapeutic treatments of NHLs": "at least 100 fold"}]}]}
